Laboratory results published in patent publication US8101550B2, “Anthranilic acid diamide derivative with hetero-aromatic and hetero-cyclic substituents” (Bayer Cropscience AG, priority 2006, dated 2012).
Some results were stated once for a whole list of compounds, not compound by compound. At least one structure is not confirmed: it was looked up by name or label, or the drawing left a doubt.

Experiments:
[1] = tested on: larvae of the mustard beetle (Phaedon cochleariae); assay: Phaedon test (spray treatment); format: in vivo; settings: application rate 100 g/ba; Chinese cabbage leaf discs sprayed
[2] = tested on: larvae of the armyworm (Spodoptera frugiperda); assay: Spodoptera frugiperda test (spray treatment); format: in vivo; settings: 100 g/ha; maize leaf discs sprayed

SMILES	effect in % (kill of beetle larvae) [1]	effect in % (kill of caterpillars) [2]
CNC(=O)c1cc(Cl)cc(C)c1NC(=O)c1cc(Cn2cc(C(F)(F)C(F)(F)F)c(C(F)(F)C(F)(F)F)n2)nn1-c1ncccc1Cl [I-1-3]	≥ 80%	
Cc1cc(Cl)cc(C(=O)NC(C)C)c1NC(=O)c1cc(Cn2nc(C(F)(F)F)cc2C(F)(F)F)nn1-c1ccccc1Cl [I-1-10]	≥ 80%	
CNC(=O)c1cc(Cl)cc(C)c1NC(=O)c1cc(Cn2nc(C(F)(F)F)cc2C(F)(F)F)nn1-c1ccccc1Cl [I-1-11]	≥ 80%	
Cc1cc(Cl)cc(C(=O)NC(C)C)c1NC(=O)c1cc(Cn2cc(C(F)(F)C(F)(F)F)c(C(F)(F)C(F)(F)F)n2)nn1-c1ncccc1Cl [I-1-12]	≥ 80%	
Cc1cc(Br)cc(C(=O)NC(C)C)c1NC(=O)c1cc(Cn2cc(C(F)(F)C(F)(F)F)c(C(F)(F)C(F)(F)F)n2)nn1-c1ncccc1Cl [I-1-13]	≥ 80%	
Cc1cc(Cl)cc(C(=O)NC(C)C)c1NC(=O)c1cc(Cn2nc(C(F)(F)C(F)(F)F)nc2C(F)(F)F)nn1-c1ncccc1Cl [I-1-23]	≥ 80%	
CNC(=O)c1cc(Br)cc(C)c1NC(=O)c1cc(Cn2nc(C(F)(F)C(F)(F)F)cc2C(F)(F)C(F)(F)F)nn1-c1ncccc1Cl [I-1-24]	≥ 80%	
CNC(=O)c1cc(Br)cc(C)c1NC(=O)c1cc(Cn2cc(C(F)(F)C(F)(F)F)c(C(F)(F)C(F)(F)F)n2)nn1-c1ncccc1Cl [I-1-25]	≥ 80%	
Cc1cc(Cl)cc(C(=O)NC(C)C)c1NC(=O)c1cc(Cn2nc(C(F)(F)C(F)(F)F)c(C(F)(F)F)c2F)nn1-c1ncccc1Cl [I-1-28]	≥ 80%	
Cc1cc(Cl)cc(C(=O)NC(C)C)c1NC(=O)c1cc(Cn2nc(C(F)(F)C(F)(F)F)nc2C(F)(F)C(F)(F)F)nn1-c1ncccc1Cl [I-1-29]	≥ 80%	
Cc1cc(Br)cc(C(=O)NCC#N)c1NC(=O)c1cc(Cn2cc(C(F)(F)C(F)(F)F)c(C(F)(F)C(F)(F)F)n2)nn1-c1ncccc1Cl [I-1-33]	≥ 80%	
Cc1cc(Br)cc(C(=O)NC(C)C)c1NC(=O)c1cc(Cn2nc(C(F)(F)C(F)(F)F)nc2C(F)(F)C(F)(F)F)nn1-c1ncccc1Cl [I-1-37]	≥ 80%	
CNC(=O)c1cc(Br)cc(C)c1NC(=O)c1cc(Cn2nc(C(F)(F)C(F)(F)F)nc2C(F)(F)C(F)(F)F)nn1-c1ncccc1Cl [I-1-39]	≥ 80%	
Cc1cc(Cl)cc(C(=O)NC(C)C)c1NC(=O)c1cc(Cn2nc(C(F)(F)F)nc2C(F)(F)F)nn1-c1c(Cl)cccc1Cl [I-1-40]	≥ 80%	
Cc1cc(Cl)cc(C(=O)NC2CC2)c1NC(=O)c1cc(Cn2cc(C(F)(F)C(F)(F)F)c(C(F)(F)C(F)(F)F)n2)nn1-c1ncccc1Cl [I-1-46]	≥ 80%	≥ 80%
Cc1cc(Cl)cc(C(=O)NCC#N)c1NC(=O)c1cc(Cn2cc(C(F)(F)C(F)(F)F)c(C(F)(F)C(F)(F)F)n2)nn1-c1ncccc1Cl [I-1-47]	≥ 80%	≥ 80%
Cc1cc(Cl)cc(C(N)=O)c1NC(=O)c1cc(Cn2cc(C(F)(F)C(F)(F)F)c(C(F)(F)C(F)(F)F)n2)nn1-c1ncccc1Cl [I-1-48]	≥ 80%	≥ 80%
Cc1cc(Br)cc(C(=O)NC2CC2)c1NC(=O)c1cc(Cn2cc(C(F)(F)C(F)(F)F)c(C(F)(F)C(F)(F)F)n2)nn1-c1ncccc1Cl [I-1-52]	≥ 80%	≥ 80%
Cc1cc(Br)cc(C(N)=O)c1NC(=O)c1cc(Cn2cc(C(F)(F)C(F)(F)F)c(C(F)(F)C(F)(F)F)n2)nn1-c1ncccc1Cl [I-1-53]	≥ 80%	≥ 80%
Cc1cccc(C(=O)N[C@@H](C)CS(C)(=O)=O)c1NC(=O)c1cc(Cn2nc(C(F)(F)F)nc2C(F)(F)F)nn1-c1ncccc1Cl [I-1-87]	≥ 80%	≥ 80%
Cc1cc(Cl)cc(C(=O)NC(C)C)c1NC(=O)c1cc(Cn2nc(C(F)(F)F)n(-c3ccccc3)c2=O)nn1-c1ncccc1Cl [I-1-119]		≥ 80%
Cc1cc(Cl)cc(C(=O)N[C@@H](C)CS(C)(=O)=O)c1NC(=O)c1cc(Cn2nc(C(F)(F)F)nc2C(F)(F)F)nn1-c1ncccc1Cl [I-1-129]	≥ 80%	≥ 80%
Cc1cc(Br)cc(C(=O)N[C@@H](C)C[S+](C)[O-])c1NC(=O)c1cc(Cn2nc(C(F)(F)F)nc2C(F)(F)F)nn1-c1ncccc1Cl (stereo partly drawn) [I-1-140]	≥ 80%	≥ 80%
Cc1cc(Cl)cc(C(=O)N[C@@H](C)C[S+](C)[O-])c1NC(=O)c1cc(Cn2nc(C(F)(F)F)nc2C(F)(F)F)nn1-c1ncccc1Cl (stereo partly drawn) [I-1-147]	≥ 80%	≥ 80%

SMILES	effect in % (kill of beetle larvae) [1]	effect in % (kill of caterpillars) [2]
Cc1cc(Cl)cc(C(=O)N=S(C(C)C)C(C)C)c1NC(=O)c1cc(Cn2nc(C(F)(F)F)nc2C(F)(F)F)nn1-c1ncccc1Cl [I-1-167]	≥ 80%	≥ 80%
Cc1cc(C#N)cc(C(=O)NC(C)C)c1NC(=O)c1cc(Cn2cc(C(F)(F)C(F)(F)F)c(C(F)(F)C(F)(F)F)n2)nn1-c1ncccc1Cl [I-1-169]	≥ 80%	≥ 80%
CNC(=O)c1cc(C#N)cc(C)c1NC(=O)c1cc(Cn2cc(C(F)(F)C(F)(F)F)c(C(F)(F)C(F)(F)F)n2)nn1-c1ncccc1Cl [I-1-170]	≥ 80%	≥ 80%
Cc1cc(C#N)cc(C(=O)NC2CC2)c1NC(=O)c1cc(Cn2cc(C(F)(F)C(F)(F)F)c(C(F)(F)C(F)(F)F)n2)nn1-c1ncccc1Cl [I-1-191]	≥ 80%	≥ 80%
Cc1cc(C#N)cc(C(N)=O)c1NC(=O)c1cc(Cn2cc(C(F)(F)C(F)(F)F)c(C(F)(F)C(F)(F)F)n2)nn1-c1ncccc1Cl [I-1-192]	≥ 80%	≥ 80%
Cc1cc(C#N)cc(C(=O)NCC#N)c1NC(=O)c1cc(Cn2cc(C(F)(F)C(F)(F)F)c(C(F)(F)C(F)(F)F)n2)nn1-c1ncccc1Cl [I-1-193]	≥ 80%	≥ 80%
Cc1cc(F)cc(C(=O)NCc2ccco2)c1NC(=O)c1cc(Cn2cc(Cl)c(C(F)(F)C(F)(F)F)n2)nn1-c1ncccc1Cl [I-1-196]	≥ 80%	≥ 80%
Cc1cc(F)cc(C(=O)NC2C3CCCCC32)c1NC(=O)c1cc(Cn2cc(Cl)c(C(F)(F)C(F)(F)F)n2)nn1-c1ncccc1Cl (stereo not drawn) [I-1-199]	≥ 80%	≥ 80%
Cc1cc(Cl)cc(C(=O)NCc2ccco2)c1NC(=O)c1cc(Cn2cc(Cl)c(C(F)(F)C(F)(F)F)n2)nn1-c1ncccc1Cl [I-1-201]	≥ 80%	≥ 80%
Cc1cc(Cl)cc(C(=O)NC2CCCC2N)c1NC(=O)c1cc(Cn2cc(Cl)c(C(F)(F)C(F)(F)F)n2)nn1-c1ncccc1Cl (stereo not drawn) [I-1-202]		≥ 80%
Cc1cc(F)cc(C(=O)NC(C)CS(C)(=O)=O)c1NC(=O)c1cc(Cn2cc(Cl)c(C(F)(F)C(F)(F)F)n2)nn1-c1ncccc1Cl (stereo not drawn) [I-1-204]	≥ 80%	≥ 80%
Cc1cc(Cl)cc(C(=O)NC2C3CCCCC32)c1NC(=O)c1cc(Cn2cc(Cl)c(C(F)(F)C(F)(F)F)n2)nn1-c1ncccc1Cl (stereo not drawn) [I-1-205]		≥ 80%
Cc1cc(C#N)cc(C(=O)NCc2ccco2)c1NC(=O)c1cc(Cn2cc(Cl)c(C(F)(F)C(F)(F)F)n2)nn1-c1ncccc1Cl [I-1-208]	≥ 80%	≥ 80%
Cc1cc(C#N)cc(C(=O)NC(C)CS(C)(=O)=O)c1NC(=O)c1cc(Cn2cc(Cl)c(C(F)(F)C(F)(F)F)n2)nn1-c1ncccc1Cl (stereo not drawn) [I-1-210]	≥ 80%	≥ 80%
Cc1cc(Cl)cc(C(=O)NC(C)CS(C)(=O)=O)c1NC(=O)c1cc(Cn2cc(Cl)c(C(F)(F)C(F)(F)F)n2)nn1-c1ncccc1Cl (stereo not drawn) [I-1-213]	≥ 80%	≥ 80%
Cc1cc(Cl)cc(C(=O)NC(CN2CCCCC2)C2CC2)c1NC(=O)c1cc(Cn2cc(Cl)c(C(F)(F)C(F)(F)F)n2)nn1-c1ncccc1Cl (stereo not drawn) [I-1-214]	≥ 80%	≥ 80%
CCN(CC)CC(C)NC(=O)c1cc(Cl)cc(C)c1NC(=O)c1cc(Cn2cc(Cl)c(C(F)(F)C(F)(F)F)n2)nn1-c1ncccc1Cl (stereo not drawn) [I-1-215]	≥ 80%	≥ 80%
Cc1cc(I)cc(C(=O)NC(C2CC2)C2CC2)c1NC(=O)c1cc(Cn2nc(C(F)(F)F)cc2C(F)(F)F)nn1-c1ncccc1Cl [I-1-236]	≥ 80%	
Cc1cc(I)cc(C(=O)NC(C2CC2)C2CC2)c1NC(=O)c1cc(Cn2cc(Cl)c(C(F)(F)C(F)(F)F)n2)nn1-c1ncccc1Cl [I-1-288]	≥ 80%	
CNC(=O)c1cc(Cl)cc(Cl)c1NC(=O)c1cc(Cn2nc(C(F)(F)F)nc2C(F)(F)F)nn1C(C)C [I-2-3]		≥ 80%
CC(C)NC(=O)c1cc(Cl)cc(Cl)c1NC(=O)c1cc(Cn2nc(C(F)(F)F)cc2C(F)(F)F)nn1-c1ncc(C(F)(F)F)cc1Cl [I-2-8]		≥ 80%
Cc1cc(Cl)cc(C(=O)NC2CC2)c1NC(=O)c1cc(Cn2nc(C(F)(F)F)cc2C(F)(F)F)nn1-c1ncc(C(F)(F)F)cc1Cl [I-2-12]		≥ 80%
Cc1cc(F)cc(C(=O)NC2CC2)c1NC(=O)c1cc(Cn2nc(C(F)(F)F)cc2C(F)(F)F)nn1-c1ncc(C(F)(F)F)cc1Cl [I-2-19]		≥ 80%
CC(C)NC(=O)c1cc2ccccc2c(Cl)c1NC(=O)c1cc(Cn2nc(C(F)(F)F)cc2C(F)(F)F)nn1-c1ncccc1Cl [I-3-1]		≥ 80%
